Experimental data from publication PMC4071220.
No constants are given. Whether binding was seen depends on the method and setting. In cells and extracts the contact can be indirect. Some results given as binding are weak or reduced against the parent protein; the word gives no strength.

By UniProt entry, the sequences of proteins in these tests, tags left out.
UniProt O75925: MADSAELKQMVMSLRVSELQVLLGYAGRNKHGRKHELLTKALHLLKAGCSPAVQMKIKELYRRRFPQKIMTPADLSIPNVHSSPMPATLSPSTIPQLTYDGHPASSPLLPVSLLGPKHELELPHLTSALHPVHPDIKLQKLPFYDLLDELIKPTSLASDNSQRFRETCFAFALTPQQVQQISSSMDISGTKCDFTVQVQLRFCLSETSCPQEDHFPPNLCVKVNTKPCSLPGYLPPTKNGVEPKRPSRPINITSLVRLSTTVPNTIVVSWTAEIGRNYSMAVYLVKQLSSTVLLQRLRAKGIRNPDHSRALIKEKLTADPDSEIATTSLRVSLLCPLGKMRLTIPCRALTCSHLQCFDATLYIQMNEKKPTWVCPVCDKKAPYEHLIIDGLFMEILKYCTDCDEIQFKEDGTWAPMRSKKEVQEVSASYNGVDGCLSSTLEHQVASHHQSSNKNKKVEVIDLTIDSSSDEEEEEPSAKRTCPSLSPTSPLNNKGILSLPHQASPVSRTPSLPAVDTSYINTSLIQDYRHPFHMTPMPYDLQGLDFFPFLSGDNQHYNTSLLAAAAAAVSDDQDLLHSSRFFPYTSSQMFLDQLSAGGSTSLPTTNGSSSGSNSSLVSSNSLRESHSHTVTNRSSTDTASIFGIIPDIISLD

Biological target: protein inhibitor of activated STAT1 (PIAS1), endogenous (human (endogenous in HEK293T)) (UniProt O75925)
Test: co-IP; HEK293T cell lysate without any plasmid transfection, immunoprecipitated with anti-PIAS1 antibody, immunoblotted with anti-Hes-1 and anti-PIAS1

B1: Hairy and Enhancer of split 1 (Hes-1), endogenous (protein, UniProt Q14469 1-280)
chain: MPADIMEKNSSSPVAATPASVNTTPDKPKTASEHRKSSKPIMEKRRRARINESLSQLKTLILDALKKDSSRHSKLEKADILEMTVKHLRNLQRAQMTAALSTDPSVLGKYRAGFSECMNEVTRFLSTCEGVNTEVRTRLLGHLANCMTQINAMTYPGQPHPALQAPPPPPPGPGGPQHAPFAPPPPLVPIPGGAAPPPGGAPCKLGSQAGEAAKVFGGFQVVPAPDGQFAFLIPNGAFAHSGPVIPVYTSNSGTSVGPNAVSPSSGPSLTADSMWRPWRN
- binding: binds
